One substance from publication doi:10.1101/2024.03.04.583404 can be followed below.

Protein sequences, listed by entry. Tags and fused reporters are not part of them. Lines headed by an entry give the natural chain unless they say otherwise; changes in a name come on top.
UniProt Q21740: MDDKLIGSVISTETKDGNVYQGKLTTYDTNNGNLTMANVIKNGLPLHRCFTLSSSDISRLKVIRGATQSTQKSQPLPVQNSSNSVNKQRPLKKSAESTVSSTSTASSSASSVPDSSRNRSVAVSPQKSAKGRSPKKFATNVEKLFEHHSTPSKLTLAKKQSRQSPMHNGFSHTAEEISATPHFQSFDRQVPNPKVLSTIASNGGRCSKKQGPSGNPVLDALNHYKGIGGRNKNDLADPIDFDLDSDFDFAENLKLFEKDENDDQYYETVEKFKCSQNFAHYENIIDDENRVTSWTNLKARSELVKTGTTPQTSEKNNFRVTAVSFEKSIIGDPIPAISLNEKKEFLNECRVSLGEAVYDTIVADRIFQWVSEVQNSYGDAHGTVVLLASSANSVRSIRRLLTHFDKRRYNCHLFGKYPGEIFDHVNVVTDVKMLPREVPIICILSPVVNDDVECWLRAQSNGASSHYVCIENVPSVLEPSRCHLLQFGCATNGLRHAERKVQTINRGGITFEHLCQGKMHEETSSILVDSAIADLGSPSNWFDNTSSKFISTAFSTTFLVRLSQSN

This test deals with T1, DCAP-2::3XHA (C. elegans (endogenous in embryos and larvae)) (UniProt O62255).
T1 sequence: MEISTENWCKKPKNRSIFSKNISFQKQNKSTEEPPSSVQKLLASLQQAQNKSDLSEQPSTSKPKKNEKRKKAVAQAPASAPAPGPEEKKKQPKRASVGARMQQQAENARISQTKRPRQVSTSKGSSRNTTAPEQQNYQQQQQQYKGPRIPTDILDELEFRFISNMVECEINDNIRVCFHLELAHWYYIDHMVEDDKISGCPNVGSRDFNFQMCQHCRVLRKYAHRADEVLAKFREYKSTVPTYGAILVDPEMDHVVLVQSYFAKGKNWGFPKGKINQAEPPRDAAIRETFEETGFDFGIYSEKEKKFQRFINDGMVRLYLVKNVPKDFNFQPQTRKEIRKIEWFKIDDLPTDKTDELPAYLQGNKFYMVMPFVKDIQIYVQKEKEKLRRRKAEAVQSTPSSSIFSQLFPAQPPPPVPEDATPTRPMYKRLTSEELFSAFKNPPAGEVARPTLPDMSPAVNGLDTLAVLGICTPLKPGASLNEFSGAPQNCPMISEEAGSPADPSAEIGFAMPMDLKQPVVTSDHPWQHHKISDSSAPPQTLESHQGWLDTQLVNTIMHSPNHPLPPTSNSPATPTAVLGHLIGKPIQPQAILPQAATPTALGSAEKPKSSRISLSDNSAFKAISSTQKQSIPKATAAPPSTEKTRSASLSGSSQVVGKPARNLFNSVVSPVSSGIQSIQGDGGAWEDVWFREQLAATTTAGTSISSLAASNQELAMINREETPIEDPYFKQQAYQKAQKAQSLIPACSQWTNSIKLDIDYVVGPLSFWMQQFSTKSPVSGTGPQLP
The test is described as follows: co-IP.

No constants are given. Whether binding was seen depends on the method and setting. In cells and extracts the contact can be indirect. Binding calls can cover weak binding; strength is not graded here.

On to EDC-3 (from UniProt Q21740), for which the binding result is listed as “binds”.
